Results are given in words; binding and its absence hold for the method and conditions named.
Molecular target: potato virus X (PVX) (Potato virus X)
Experiment: cross-reactivity phage ELISA

For GFHYSLH [monoclonal phage MPSLH (M13 phage displaying GFHYSLH)], which binding is on record?
The binding was “no binding (tested: 10^9 pfu of phage, 5 µg of virus coated)”.

How did the binding turn out when GWRVSEF [monoclonal phage MPSEF (M13 phage displaying GWRVSEF)] was run?
The binding was “no binding (tested: 10^9 pfu of phage, 5 µg of virus coated)”.

For GWRVSEL [monoclonal phage MPSEL (M13 phage displaying GWRVSEL)], which binding is on record?
The binding was “no binding (tested: 10^9 pfu of phage, 5 µg of virus coated)”.

Reference: patent publication US20240261429A1, “CPMV BINDING PEPTIDE” (The Regents of the University of California, priority 2021, published 2024)
